Our source for the binding values is article PMC7343504.

Protein sequences, listed by entry. Tags and fused reporters are not part of them.
UniProt P59941: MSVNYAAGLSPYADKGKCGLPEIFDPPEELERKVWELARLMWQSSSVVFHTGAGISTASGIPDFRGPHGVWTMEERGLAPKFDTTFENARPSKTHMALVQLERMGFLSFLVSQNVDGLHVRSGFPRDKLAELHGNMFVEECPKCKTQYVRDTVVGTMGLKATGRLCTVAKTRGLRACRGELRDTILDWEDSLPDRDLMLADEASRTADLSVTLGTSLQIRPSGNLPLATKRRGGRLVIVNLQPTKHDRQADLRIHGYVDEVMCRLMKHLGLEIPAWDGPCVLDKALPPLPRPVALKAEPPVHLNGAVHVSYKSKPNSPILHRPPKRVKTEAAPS

For the assay, the target named is SIRT6 (mouse (endogenous in MEF)) (UniProt P59941). The assay is described as follows: co-IP; cleared MEF lysate (20 mM Hepes pH 8.0, 0.2 mM EDTA, 5% glycerol, 150 mM NaCl, 1% NP40) incubated overnight with antibodies against SIRT6, protein A agarose; blot for KDM2A; before and after irradiation (IR).

No constants are given. Whether binding was seen depends on the method and setting. Binding seen in cells or lysates may run through a third protein. Some results given as binding are weak or reduced against the parent protein; the word gives no strength.

B1: lysine demethylase JHDM1A/KDM2A (enzyme, UniProt P59997 1-1161)
chain: MEPEEERIRYSQRLRGTMRRRYEDDGISDDEIEGKRTFDLEEKLQTNKYNANFVTFMEGKDFNVEYIQRGGLRDPLIFKNSDGLGIKMPDPDFTVNDVKMCVGSRRMVDVMDVNTQKGIEMTMAQWTRYYETPEEEREKLYNVISLEFSHTRLENMVQWPSTVDFIDWVDNMWPRHLKESQTESTNAILEMQYPKVQKYCLISVRGCYTDFHVDFGGTSVWYHIHQGGKVFWLIPPTAHNLELYENWLLSGKQGDIFLGDRVSDCQRIELKQGYTFVIPSGWIHAVYTPTDTLVFGGNFLHSFNIPMQLKIYSIEDRTRVPNKFRYPFYYEMCWYVLERYVYCITNRSHLTKDFQKESLSMDMELNELESGNGDEEGVDREARRMNNKRSVLTSPVANGVNLDYDGLGKACRSLPSLKKTLSGDSSSDSTRGSHNGQVWDPQCSPKKDRQVHLTHFELEGLRCLVDKLESLPLHKKCVPTGIEDEDALIADVKILLEELASSDPKLALTGVPIVQWPKRDKLKFPTRPKVRVPTIPITKPHTMKPAPRLTPVRPAAASPIVSGARRRRVRCRKCKACVQGECGVCHYCRDMKKFGGPGRMKQSCVLRQCLAPRLPHSVTCSLCGEVDQNEETQDFEKKLMECCICNEIVHPGCLQMDGEGLLNEELPNCWECPKCYQEDSSDKAQKRKIEESDEEAVQAKVLRPLRSCEEPLTPPPHSPTSMLQLIHDPVSPRGMVTRSSPGAGPSDHHSASRDERFKRRQLLRLQATERTMVREKENNPSGKKELSEVEKAKIRGSYLTVTLQRPTKELHGTSIVPKLQAITASSANLRPNPRVLMQHCPARNPQHGDEEGLGGEEEEEEEEEEDDSAEEGGAARLNGRGSWAQDGDESWMQREVWMSVFRYLSRKELCECMRVCKTWYKWCCDKRLWTKIDLSRCKAIVPQALSGIIKRQPVSLDLSWTNISKKQLTWLVNRLPGLKDLLLAGCSWSAVSALSTSSCPLLRTLDLRWAVGIKDPQIRDLLTPPTDKPGQDNRSKLRNMTDFRLAGLDITDATLRLIIRHMPLLSRLDLSHCSHLTDQSSNLLTAVGSSTRYSLTELNMAGCNKLTDQTLFFLRRIANVTLIDLRGCKQITRKACEHFISDLSINSLYCLSDEKLIQKIS
In the case of B1, the binding entry was “binds”.
